Assay results taken from US11318214B2, “Iron oxide mesoporous microparticle drug carrier” (National Guard Health Affairs, priority 2020, dated 2022).
Some results were stated once for a whole list of compounds, not compound by compound.

Test: Drug loading onto IO-MMMs (UV-vis)
Type: physicochemical
Procedure: 1 mL aqueous dispersion of IO-MMMs (1.0 mg/mL) and aqueous drug solutions (250 μg/mL) were gently shaken on a rotary shaker for 36 h to enable maximal drug loading. The particle dispersions were then isolated via centrifugation (4500 rpm, 10 min), washed repeatedly with water until no drug was detected in the supernatant by UV-vis, and finally redispersed in water to form stable aqueous dispersions of drug@IO-MMMs. In case of Tam and Daun loading, Tam was first loaded followed by Daun to afford Daun/Tam@IO-MMMs (165 μg/mL Tam; 235 μg/mL Daun). Loading efficiencies were determined by UV-Vis spectroscopy as depicted below. […] The loading efficiency was calculated as: Loading Efficiency=(W1/W0)×100, where W1 is the amount of drug loaded onto the particles, and W0 is the amount of drug in the initial solution. The amount of drug loaded onto IO-MMMs was calculated from the difference between the initial drug concentration and the drug concentration left in the supernatant.

Structure (SMILES): COc1cccc2c1C(=O)c1c(O)c3c(c(O)c1C2=O)C[C@@](O)(C(C)=O)C[C@@H]3O[C@H]1C[C@H](N)[C@H](O)[C@H](C)O1 [Daun, Daunorubicin]
- loading efficiencies depending on the initial drug concentrations used: 75-94%
